## Library screen at single concentrations

The values are deposited in ChEMBL (CHEMBL3988442, “University of Dundee, Small-Polar-MMV Screening Library” (2021)).

Each number is a percent effect as filed. The controls that fix the scale are not given in the record; negative values are as filed. The compounds are a random part of those screened. Two or more numbers in one place are separate tests of the same structure; such repeats can differ widely.

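Whole-cell growth test on Mycobacterium tuberculosis, read after 4 days in a medium based on cholesterol and the lipid DPPC; the read-out is not stated. Concentration: 50 µM. The record gives no direction; compounds that gave an IC50 in retests scored well above the rest, so higher reads as more growth inhibition. About 69,000 compounds were tested under these conditions; 0.54% (about 370) showed 50% or more at least once.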

compound	percent effect
CC(C)(NS(C)(=O)=O)c1nc(-c2ccc(F)cc2Cl)no1	-9.893
Cc1cc(C(=O)N(C)Cc2ccn[nH]2)c(NC(=O)C(C)(C)C)s1	-10.72
CCC(C)(C)C(=O)Nc1ccc2ccn(CC(=O)NC)c2c1	-27.37
O=C(CCc1cc2n(n1)CCCNC2)NCCS(=O)(=O)N1CCCC1	-24.64
Cc1cnnn1Cc1ncn2c1CN(Cc1cccs1)CCC2.O=C(O)C(F)(F)F	-13.57
Cc1cc2n(n1)CC(CNCc1ccc(OCC3CC3)nc1)CN2 (stereo unspecified)	4.728
O=C(CCS(=O)(=O)C1CCCC1)NCCc1cccc(O)c1	-11.78
c1ccc(OCC2CC3(CCN(CC4CCOCC4)CC3)CO2)nc1 (stereo unspecified)	-37.57
O=C(NCCNc1ncccn1)N1CC=C(c2ccccc2)CC1	17.76
CCn1nnc2c1CCN(S(C)(=O)=O)C2COCc1ccccc1 (stereo unspecified)	-9.69
NS(=O)(=O)Cc1ccc(CNc2cncc(-n3cccn3)n2)cc1	-5.142
O=C(O)C(F)(F)F.[H][C@@]12COC[C@@H](CC(=O)N3CCOCC3)[C@]1([H])CN(C(=O)c1cccnc1)C2	-2.701
Fc1cnc(N2CCOCC3(CCCN(c4nncs4)C3)C2)nc1 (stereo unspecified)	-9.411
COCCNC(C)c1ccc(-c2cccnc2)cc1 (stereo unspecified)	-33.21
Cc1ccc(CNC(=O)NCc2ccco2)s1	42.79
O=C(O)c1csc(S(=O)(=O)Nc2cccc(OC(F)F)c2)c1	-2.799
O=C(CCc1ccsc1)Nc1cnccc1O	-5.954 & -31.39
O=C(NCc1cccc(F)c1)NCC(O)c1cccc(F)c1 (stereo unspecified)	-37.34
Cc1nc(NC2(CN3CCCCC3)CCCCC2)c2cnn(C)c2n1	-5.35
CCO[C@H]1CO[C@@]2(CCN(Cc3ccc4c(c3)OCO4)C2)C1.O=C(O)C(F)(F)F	-3.024
COc1ccc(CNC(C)Cn2cccn2)c(OC)c1OC.Cl (stereo unspecified)	9.492
[H][C@@]12C[C@@H](OCc3ccccn3)CN1CCN(C(=O)c1ccnnc1)C2	20.55 & -2.851
[H][C@@]12CN(C(=O)N(C)C)C[C@]1([H])C(=O)NC21CCN(C(=O)C(C)C)CC1	20.4
CNC(=O)c1cc(C)ccc1NCc1cn2cc(C)ccc2n1	12.93
CN1CCN(C(=O)c2nc3c(o2)CN(C(=O)c2cccnc2)C3)CC1.O=C(O)C(F)(F)F.O=C(O)C(F)(F)F	-21.06
CNC(=O)c1sc2ncccc2c1C1CCN(C(=O)CCOC)C1 (stereo unspecified)	-15.95 & -10.29
CCc1nnc2n1CCN(Cc1ncc(-c3ccccc3)o1)C2	14.52
CS(=O)(=O)N1CCCC12CCCN(C(=O)c1cc(F)cc(F)c1)C2 (stereo unspecified)	1.562 & -8.948
CCn1c(C2CCNCC2)nn(CCn2ccc(C)n2)c1=O	7.201
C=C(C)CN1C(=O)CC(Cc2ccc(F)cc2)C1=O (stereo unspecified)	-2.789 & 8.743
COCC(Nc1nc(N(C)C)nc2c1CCNCC2)c1ccccn1 (stereo unspecified)	-2.243
N#Cc1cc(F)ccc1CN1CCCCC1Cn1cncn1 (stereo unspecified)	11.27
CCCN1CCC2(CC1)COc1ccccc1S(=O)(=O)N(CC1CC1)C2.O=C(O)C(F)(F)F	-13.16
O=c1c(CN2CC3CCCN3C[C@@H]2CCO)coc2ccc(Cl)cc12 (stereo partly specified)	-0.4499 & 14.97
Cc1nc(CN2CCCn3cnc(COCC4CC4)c3C2)cs1.O=C(O)C(F)(F)F	-4.769
Cn1c(C(F)(F)F)nn(CCNC(=O)c2ccccn2)c1=O	18.17
CC(C)c1n[nH]c(C2CN(C(=O)CCc3cscn3)CCO2)n1 (stereo unspecified)	30.31
Cc1cnn(CCC(=O)N2CCN(c3nccs3)CC2)c1	2.68
Cn1nc(N2CCCC(C(=O)Nc3nc4ccccc4[nH]3)C2)ccc1=O (stereo unspecified)	-7.971
Cc1nc(Nc2cnccn2)cc(C2CCCN(C(C)C)C2)n1 (stereo unspecified)	-7.806
[H][C@@]12CN(C(=O)c3ccncc3)C[C@]1([H])OCCN2C(C)C	2.951
Cc1nccn1-c1cccc(C2CCCN(C3CCCCC3)C2)n1 (stereo unspecified)	-3.611
CCOCc1ccccc1NC(=O)NC1CCN(C2CCCC2)C1 (stereo unspecified)	-13.54
CS(=O)(=O)N1CCC(c2cncc(Cl)n2)CC1	-23.25
CC(C)(C)c1nc(CC(=O)Nc2cnccc2O)cs1	-17.16
Cc1nc(C2CCCCN2C(=O)c2ccccc2)ncc1C(=O)N(C)C (stereo unspecified)	4.619
COCC(=O)NCc1cc2n(n1)CCCN(CCCC1CCCC1)C2	4.503 & -14.38
Cc1cc(CN2CCc3nn(C)c(=O)cc3C2)on1	-1.491
CN1CCn2c(-c3ccccc3)cnc2C12CCN(CC1CC1)CC2.O=C(O)C(F)(F)F.O=C(O)C(F)(F)F.O=C(O)C(F)(F)F	20.36
O=C1c2ccccc2C(=O)N1CC(O)Cn1nc(-c2cccs2)oc1=O (stereo unspecified)	-16 & -8.85
Cc1nnsc1C(=O)N1CCCCC1c1cc2nc(C)c(C)c(O)n2n1 (stereo unspecified)	11.76
[H][C@]12CCC[C@@]1(COCc1ccccn1)CN(Cc1ccccn1)C2	18.24
Cc1nn(C)c2c(=O)n(Cc3ccc(F)cc3)nnc12	0.9866
Cc1nn(C)c(C)c1C1COCCN1C(=O)CSC(C)(C)C (stereo unspecified)	3.523
CCc1nnc2n1CCN(C(=O)CCc1ccc(C)c(Cl)c1)C2	1.684
Cc1cc(C)n(CC2CN(Cc3ccccn3)CCO2)n1 (stereo unspecified)	-11.09
CC(C)(C)c1cnc(CN2CCC(NC(=O)CC3CCCC3)CC2)o1	-1.163
COc1ccc2cc(NC(=O)CCNc3nc(C)cc(C)n3)cnc2c1	-7.554
CCCc1nnc(N2C[C@@H](C)[C@@](C)(O)C2)s1	-1.5
CN(CC1COc2ccccc2O1)C(=O)C1=NN(C)C(=O)CC1 (stereo unspecified)	15.44
CCN1CCCC(C)(C(=O)NCCc2n[nH]c(=O)[nH]2)C1 (stereo unspecified)	-7.872 & -0.6451
O=C(O)C(F)(F)F.[H][C@@]12C[C@H](C(=O)N3CCCC3)CN(CC3CCOCC3)[C@]1([H])CCO2	7.892
CC(C)CSCCCNC(=O)C1CCOCC1	-14.65
[H][C@@]12CS(=O)(=O)C[C@]1([H])N(C(=O)c1cn3ccsc3n1)CCN2CC1CC1	2.16
c1ccc(Cn2cccn2)c(CN2CCC3(CCCNC3)C2)c1 (stereo unspecified)	-5.594 & -5.114
CCc1noc(CN2CCC(C(=O)Nc3cnn(CC)c3)CC2)n1	7.728
Cc1cc(C(=O)N2CCCC2)ccc1NCC(=O)N1CCOCC1	-1.867
COc1ccc(CN2CCc3c(nc(-c4ccccn4)[nH]c3=O)C2)cc1	33.85
Cc1cnn(C2CCCN(C(=O)CCCNc3ncccn3)C2)c1 (stereo unspecified)	-42.95
CCN(CC)C(=O)c1ccc(Cl)c(NC(=O)c2cc(C(C)C)on2)c1	26.21
CC(C)(C)c1cnc(CNCC2CCCN2c2cccnn2)o1 (stereo unspecified)	-8.612 & -12.16
CCNc1nnc(SC(C(=O)NCc2cccnc2)C(C)C)s1 (stereo unspecified)	4.478
[H][C@@]12CCN(c3cnccn3)C[C@@]1(C(=O)O)CCCN2Cc1cccnc1	-3.826 & -6.142
CC(C)c1cc2c(O)nc(CSCC(=O)NCc3ccncc3)nc2s1	1.604 & -5.593
c1cncc(CNc2ncnc3c2CCN(Cc2ccsc2)CC3)c1	10.32
CC(C)N1CCOC(c2ccnc(N(C)C)n2)C1 (stereo unspecified)	10.91 & 1.614
O=C(Cc1ccc2c(c1)OCO2)N1CCCN(c2nccs2)CC1	1.193
Cc1cnn(CCC(=O)Nc2cccnc2N2CCC(CO)CC2)c1	-14.76
Cn1cc(CN2CCCC(CCc3ccccc3C(F)(F)F)C2)cn1 (stereo unspecified)	13.44
Cc1ccc(CN2CC(O)CN(C(=O)OCC(C)C)CC2=O)cc1 (stereo unspecified)	-7.769
CCSc1ncc(CN(Cc2cnn(C)c2)CC(C)C)cn1	17.66
CN(CC(F)(F)F)C(=O)COc1nc(Cc2ccc(F)cc2)no1	11.24
CCc1cc(C(=O)N2CCCC(c3[nH]ncc3S(C)(=O)=O)C2)no1 (stereo unspecified)	-7.518
CC(=O)N[C@@H]1CN(C(=O)c2cc3sccc3[nH]2)C[C@H]1c1ccc(C)o1	-27.01
Cn1nc(COc2cccnc2)c2c1CCN(c1ncccn1)C2	-0.2052
NC(=O)C1CN(C(=O)C2(c3ccc(F)cc3F)CCCC2)CCO1 (stereo unspecified)	5.379

Some entries from above, unchanged:

compound	percent effect
Cc1cc(C)n(CC2CN(Cc3ccccn3)CCO2)n1 (stereo unspecified)	-11.09
O=c1c(CN2CC3CCCN3C[C@@H]2CCO)coc2ccc(Cl)cc12 (stereo partly specified)	-0.4499 & 14.97
Cc1ccc(CN2CC(O)CN(C(=O)OCC(C)C)CC2=O)cc1 (stereo unspecified)	-7.769
COCC(=O)NCc1cc2n(n1)CCCN(CCCC1CCCC1)C2	4.503 & -14.38
c1ccc(Cn2cccn2)c(CN2CCC3(CCCNC3)C2)c1 (stereo unspecified)	-5.594 & -5.114
CNC(=O)c1sc2ncccc2c1C1CCN(C(=O)CCOC)C1 (stereo unspecified)	-15.95 & -10.29
Cc1nccn1-c1cccc(C2CCCN(C3CCCCC3)C2)n1 (stereo unspecified)	-3.611
CCc1nnc2n1CCN(Cc1ncc(-c3ccccc3)o1)C2	14.52
CC(C)(C)c1cnc(CNCC2CCCN2c2cccnn2)o1 (stereo unspecified)	-8.612 & -12.16
CCSc1ncc(CN(Cc2cnn(C)c2)CC(C)C)cn1	17.66
Cc1nc(Nc2cnccn2)cc(C2CCCN(C(C)C)C2)n1 (stereo unspecified)	-7.806